Consider two molecules from PMC12218971.

These are yes or no findings as the source states them, for the method shown. Binding seen in cells or lysates may run through a third protein. Some binding calls cover weakened binding; strength is not graded here. Tags and fused reporters may be left off the sequences shown.

This assay deals with T1, Hsp22-3xFLAG (Drosophila) (UniProt P02515).
T1 sequence: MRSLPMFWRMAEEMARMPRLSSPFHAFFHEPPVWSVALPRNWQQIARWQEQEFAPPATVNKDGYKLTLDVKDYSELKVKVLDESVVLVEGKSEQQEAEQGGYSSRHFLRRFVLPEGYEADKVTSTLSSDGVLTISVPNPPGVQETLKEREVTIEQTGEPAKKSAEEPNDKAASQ
Briefly: co-IP; S2 cells expressing Hsp22-3xFLAG (bait) and a 5xMyc-tagged prey from one pAc5-STABLE-neo plasmid (T2A); M2 anti-FLAG agarose beads; Western blot with anti-FLAG and anti-Myc. On the technique in general: In western blotting, separated proteins are transferred to a membrane and probed.

B1: Fer1HCH-5xMyc (protein, UniProt Q7KRU8 20-205)
chain: DFKCSLAVPEITKDWVDMKDACIKGMRNQIQEEINASYQYLAMGAYFSRDTVNRPGFAEHFFKAAKEEREHGSKLVEYLSMRGQLTEGVSDLINVPTVAKQEWTDGAAALSDALDLEIKVTKSIRKLIQTCENKPYNHYHLVDYLTGVYLEEQLHGQRELAGKLTTLKKMMDTNGELGEFLFDKTL
Regarding B1, the binding result is “binds”.

B2: RFeSP-5xMyc (protein, UniProt Q9VQ29 36-230)
chain: AHTDLQVPDFSAYRRESVKDSRRRNDTAEERKAFSYLMVGAGAVGGAYAAKGLVNTFIGSMSASAEVLAMAKIEIKLSDIPEGKSVTFKWRGKPLFIRHRTAAEIETERNVPTSTLRDPEADDQRVIKPEWLVVIGVCTHLGCVPIANAGDWGGYYCPCHGSHYDASGRIRKGPAPLNLEVPTHEFPNEGLLVVG
Consider B2, for which the binding entry is recorded as “binds”.
